PubChem BioAssay AID290 (DTP/NCI, 2004)
The list does not hold the whole screen: it is rich in T/C values a quarter to a half above the control, in often repeated tests (any T/C) and in doses without a T/C. Other doses and runs of a compound stand elsewhere. T/C gives the treated animals as a percentage of the vehicle group. Schedules are NCI's codes, taken here to give the interval after Q, in days (D) or hours (H), and the number of doses after X. Some T/C values carry the count of animals alive at the toxicity check (mostly the fifth day); where none is given, no animal had died by that day. Some entries were tested several times; the values are given in rising order. Some doses have a count of surviving animals in place of a T/C: the source holds a T/C of zero for them, seemingly a mark for toxic or unscored doses. Counts of survivors are from the toxicity check (mostly the fifth day) where no day follows; animals may have died later.

System: mice, P1798 lymphosarcoma sc, survival or tumor weight T/C
Test: NCI In Vivo Anticancer Drug Screen. Data for tumor model P1798 Lymphosarcoma (subcutaneous) in unknown mice
Settings: T/C endpoint: mean tumor weight, higher T/C = larger tumour
Experimental: The antitumor activity of compounds was measured in mice bearing transplantable tumors. Survival or tumor size were measured and the results are expressed as the measurement made in the treated group (T) divided by the measurement made in the vehicle treated control group (C). The tumor model used in this assay is P1798 Lymphosarcoma (subcutaneous) in unknown mice

## CCN(CC)CCNc1ccc(C)c2sc3ccccc3c(=O)c12
dose: 2.5 mg/kg/injection, schedule: Q01DX010 (ip), vehicle: methylcellulose (MC)
  survivor count: 5 of 10
dose: 6.3 mg/kg/injection, schedule: Q01DX010 (ip), vehicle: methylcellulose (MC), evaluated on day 14
  T/C: 51, 55, 63, 106 % of control [9 of 10 alive]
dose: 12.5 mg/kg/injection, schedule: Q01DX010 (ip), vehicle: methylcellulose (MC), evaluated on day 14
  T/C: 57, 60, 67, 74 % of control
dose: 12.5 mg/kg/injection, schedule: Q01DX010 (ip), vehicle: methylcellulose (MC), evaluated on day 20
  T/C: 118 % of control [8 of 10 alive]
dose: 25.0 mg/kg/injection, schedule: Q01DX010 (ip), vehicle: methylcellulose (MC), evaluated on day 14
  T/C: 38, 49 [7 of 10 alive], 58 [9 of 10 alive], 94 % of control
dose: 25.0 mg/kg/injection, schedule: Q01DX010 (ip), vehicle: methylcellulose (MC)
  survivor count: 3 of 10
dose: 50.0 mg/kg/injection, schedule: Q01DX010 (ip), vehicle: methylcellulose (MC)
  survivor count: 4 of 10
dose: 100.0 mg/kg/injection, schedule: Q01DX010 (ip), vehicle: methylcellulose (MC)
  survivor count: 0 of 10

## CO[C@H](C(=O)[C@@H](O)[C@@H](C)O)[C@@H]1Cc2cc3cc(OC4CC(OC5CC(O)C(O)C(C)O5)C(O)C(C)O4)c(C)c(O)c3c(O)c2C(=O)[C@H]1OC1CC(OC2CC(OC3CC(C)(O)C(O)C(C)O3)C(O)C(C)O2)C(O)C(C)O1 (stereo partly drawn)
dose: 0.12 mg/kg/injection, schedule: Q01DX011 (ip), vehicle: saline, evaluated on day 12
  T/C: 91, 92, 114, 118 % of control
dose: 0.25 mg/kg/injection, schedule: Q01DX011 (ip), vehicle: saline, evaluated on day 12
  T/C: 48, 61, 86, 138 % of control [9 of 10 alive]
dose: 0.25 mg/kg/injection, schedule: Q01DX011 (ip), vehicle: saline
  survivor count: 5 of 10
dose: 0.5 mg/kg/injection, schedule: Q01DX011 (ip), vehicle: saline, evaluated on day 12
  T/C: 10 [7 of 10 alive] and 34 % of control [9 of 10 alive]
dose: 0.5 mg/kg/injection, schedule: Q01DX011 (ip), vehicle: saline
  survivor count: 5 of 10
dose: 1.0 mg/kg/injection, schedule: Q01DX011 (ip), vehicle: saline
  survivor count: 0 of 10
dose: 2.0 mg/kg/injection, schedule: Q01DX011 (ip), vehicle: saline
  survivor count: 0 of 10

## S=P(N1CCOCC1)(N1CC1)N1CC1
dose: 25.0 mg/kg/injection, schedule: Q01DX010 (ip), vehicle: carboxymethylcellulose (CMC)
  survivor count: 0 of 10
dose: 50.0 mg/kg/injection, schedule: Q01DX010 (ip), vehicle: carboxymethylcellulose (CMC)
  survivor count: 0 of 10

## CC(C)(c1ccccc1)c1ccc(O)cc1
dose: 400.0 mg/kg/injection, schedule: Q01DX010 (ip), vehicle: carboxymethylcellulose (CMC)
  survivor count: 4 of 10

## CN(N=O)C(N)=O
dose: 50.0 mg/kg/injection, schedule: Q01DX010 (ip), vehicle: saline
  survivor count: 0 of 10

## O=c1[nH]c(=O)n(C2CC(O)C(CO)O2)cc1F (stereo not drawn)
dose: 100.0 mg/kg/injection, schedule: Q01DX010 (ip), vehicle: carboxymethylcellulose (CMC)
  survivor count: 0 of 10
dose: 200.0 mg/kg/injection, schedule: Q01DX010 (ip), vehicle: carboxymethylcellulose (CMC)
  survivor count: 0 of 10

## CC[C@]1(O)C[C@H]2CN(CCc3c([nH]c4ccccc34)[C@@](C(=O)OC)(c3cc4c(cc3OC)N(C=O)[C@H]3[C@@](O)(C(=O)OC)[C@H](OC(C)=O)[C@]5(CC)C=CCN6CC[C@]43[C@@H]65)C2)C1
dose: 0.06 mg/kg/injection, schedule: Q01DX010 (ip), vehicle: water, evaluated on day 14
  T/C: 7, 10, 11, 18, 38 % of control
dose: 0.12 mg/kg/injection, schedule: Q01DX010 (ip), vehicle: water, evaluated on day 14
  T/C: 1, 22 [9 of 10 alive], 36 % of control
dose: 0.25 mg/kg/injection, schedule: Q01DX010 (ip), vehicle: water, evaluated on day 14
  T/C: 1, 5 [9 of 10 alive], 27 % of control
dose: 0.25 mg/kg/injection, schedule: Q01DX010 (ip), vehicle: water
  survivor count: 1 of 10
dose: 2.7 mg/kg/injection, schedule: Q01DX001 (ip), vehicle: saline
  survivor count: 5 of 10
dose: 31.0 micrograms/kg/injection, schedule: Q01DX010 (ip), vehicle: water, evaluated on day 20
  T/C: 137 % of control [9 of 10 alive]
dose: 250.0 micrograms/kg/injection, schedule: Q01DX010 (ip), vehicle: water
  survivor count: 4 of 10

## N#[N+]c1cnc([O-])[nH]c1=O
dose: 20.0 mg/kg/injection, schedule: Q01DX010 (ip), vehicle: carboxymethylcellulose (CMC)
  survivor count: 0 of 10
dose: 40.0 mg/kg/injection, schedule: Q01DX010 (ip), vehicle: carboxymethylcellulose (CMC)
  survivor count: 0 of 10

## Nc1nc(F)nc2c1ncn2C1OC(CO)C(O)C1O (stereo not drawn)
dose: 6.0 mg/kg/injection, schedule: Q01DX011 (ip), vehicle: saline
  survivor count: 0 of 10

## S=C(N=Nc1ccccc1)NNc1ccccc1
dose: 75.0 mg/kg/injection, schedule: Q01DX010 (ip), vehicle: carboxymethylcellulose (CMC)
  survivor count: 4 of 10
dose: 150.0 mg/kg/injection, schedule: Q01DX010 (ip), vehicle: carboxymethylcellulose (CMC)
  survivor count: 0 of 10
dose: 300.0 mg/kg/injection, schedule: Q01DX010 (ip), vehicle: carboxymethylcellulose (CMC)
  survivor count: 0 of 10

## CC/C(=C(/CC)c1ccc(O)cc1)c1ccc(O)cc1
dose: 125.0 mg/kg/injection, schedule: Q01DX010 (sc), vehicle: steroid suspending solution
  survivor count: 3 of 10
dose: 250.0 mg/kg/injection, schedule: Q01DX010 (sc), vehicle: steroid suspending solution
  survivor count: 0 of 10 and 5 of 10
dose: 500.0 mg/kg/injection, schedule: Q01DX010 (sc), vehicle: steroid suspending solution
  survivor count: 0 of 10
dose: 1000.0 mg/kg/injection, schedule: Q01DX010 (sc), vehicle: steroid suspending solution
  survivor count: 0 of 10
